From patent US10307418B2, “Azole pharmaceutical formulations for parenteral administration and methods for preparing and using the same as treatment of diseases sensitive to azole compounds” (Platform Brightworks Two, Ltd., priority 2010, dated 2019)
“And” between values parts separate entries of the source, which are not always exact repeats. Equal entries are not always repeated. At least one compound was matched to its structure with a doubt left.

Assay: Stability of ITZA/POSA in solvent vehicles (HPLC)
Assay type: physicochemical
Conditions: for average (ITZA) / mg/mL (ITZA): H3D, 4 mg/mL; for ITZA (2.0 mg/mL): solvent H3/normal saline (1:1), RT

## CCC(C)n1ncn(-c2ccc(N3CCN(c4ccc(OCC5COC(Cn6cncn6)(c6ccc(Cl)cc6Cl)O5)cc4)CC3)cc2)c1=O (stereo not shown) [ITZA, itraconazole]
0 hr
  average (ITZA): 3.53 mg/mL
0 hr, single determination
  mg/mL (ITZA): 3.67 mg/mL and 3.29 mg/mL and 3.64 mg/mL
2 hr
  average (ITZA): 3.62 mg/mL
2 hr, single determination
  mg/mL (ITZA): 3.72 mg/mL and 3.58 mg/mL and 3.55 mg/mL
4 hr
  average (ITZA): 3.55 mg/mL
4 hr, single determination
  mg/mL (ITZA): 3.47 mg/mL and 3.62 mg/mL and 3.56 mg/mL
6 hr
  average (ITZA): 3.50 mg/mL
6 hr, single determination
  mg/mL (ITZA): 3.44 mg/mL and 3.66 mg/mL and 3.39 mg/mL
8 hr
  average (ITZA): 3.49 mg/mL
8 hr, single determination
  mg/mL (ITZA): 3.52 mg/mL and 3.35 mg/mL and 3.59 mg/mL
24 hr
  average (ITZA): 3.44 mg/mL
24 hr, single determination
  mg/mL (ITZA): 3.44 mg/mL and 3.50 mg/mL and 3.37 mg/mL
Solvent H3G, 0 hr
  Avrge [ITZA]: 3.50 mg/mL
Solvent H3G, 0 hr, single determination
  ITZA: 3.56 mg/mL and 3.49 mg/mL and 3.45 mg/mL
Solvent H3G, 2 hr
  Avrge [ITZA]: 3.77 mg/mL
Solvent H3G, 2 hr, single determination
  ITZA: 3.83 mg/mL and 3.69 mg/mL and 3.78 mg/mL
Solvent H3G, 4 hr
  Avrge [ITZA]: 3.65 mg/mL
Solvent H3G, 4 hr, single determination
  ITZA: 3.67 mg/mL and 3.62 mg/mL and 3.65 mg/mL
Solvent H3G, 6 hr
  Avrge [ITZA]: 3.52 mg/mL
Solvent H3G, 6 hr, single determination
  ITZA: 3.50 mg/mL and 3.44 mg/mL and 3.62 mg/mL
Solvent H3G, 8 hr
  Avrge [ITZA]: 3.42 mg/mL
Solvent H3G, 8 hr, single determination
  ITZA: 3.60 mg/mL and 3.26 mg/mL and 3.40 mg/mL
Solvent H3G, 24 hr
  Avrge [ITZA]: 3.59 mg/mL
Solvent H3G, 24 hr, single determination
  ITZA: 3.68 mg/mL and 3.49 mg/mL and 3.62 mg/mL
acidified-EtOH±benzyl alcohol-PEG400 solvent system, after more than 3 days at RT
  Drug intact, still in solution (HPLC): at least 90%
Parent solvent H3, approximately 4 mg/mL, room temperature, 14 (2 w)
  ITZA: 3.18 mg/mL
Parent solvent H3, approximately 4 mg/mL, room temperature, 21 (3 w)
  ITZA: 3.05 mg/mL
Parent solvent H3, approximately 4 mg/mL, room temperature, 28 (4 w)
  ITZA: 2.89 mg/mL
Parent solvent H3, approximately 4 mg/mL, room temperature, 35 (5 w)
  ITZA: 2.96 mg/mL
Parent solvent H3, approximately 4 mg/mL, room temperature, 49 (7 w)
  ITZA: 3.02 mg/mL
Parent solvent H3, approximately 4 mg/mL, room temperature, 63 (9 w)
  ITZA: 2.89 mg/mL
Parent solvent H3, approximately 4 mg/mL, room temperature, 24 hrs
  ITZA: 3.81 mg/mL
Parent solvent H3, approximately 4 mg/mL, room temperature, 48 hrs
  ITZA: 3.69 mg/mL
Parent solvent H3, approximately 4 mg/mL, room temperature, 72 hrs
  ITZA: 3.66 mg/mL
Parent solvent H3, approximately 4 mg/mL, room temperature, 96 hrs
  ITZA: 3.38 mg/mL
Parent solvent H3, approximately 4 mg/mL, room temperature, 7 days (1 w)
  ITZA: 3.48 mg/mL
Parent solvent H3, approximately 4 mg/mL, room temperature, 9 days
  ITZA: 3.22 mg/mL
Parent solvent H3, approximately 4 mg/mL, room temperature, 11 days
  ITZA: 2.97 mg/mL
Parent solvent H3, approximately 4 mg/mL, room temperature, 18 days
  ITZA: 3.05 mg/mL
Parent solvent H3, approximately 4 mg/mL, room temperature, time 0
  ITZA: 3.84 mg/mL
Solvent H3, approximately 4 mg/mL, 40° C., 3 hr
  ITZA: 3.98 mg/mL
Solvent H3, approximately 4 mg/mL, 40° C., 6 hr
  ITZA: 3.76 mg/mL
Solvent H3, approximately 4 mg/mL, 40° C., 24 hr
  ITZA: 3.52 mg/mL
Solvent H3, approximately 4 mg/mL, 40° C., 30 hr
  ITZA: 3.43 mg/mL
Solvent H3, approximately 4 mg/mL, 40° C., 48 hr
  ITZA: 3.23 mg/mL
Solvent H3, approximately 4 mg/mL, 40° C., 54 hr
  ITZA: 3.04 mg/mL
Solvent H3, approximately 4 mg/mL, 40° C., 72 hr
  ITZA: 2.91 mg/mL
Solvent H3, approximately 4 mg/mL, 40° C., 78 hr
  ITZA: 3.05 mg/mL
Solvent H3, approximately 4 mg/mL, 40° C., 4 days
  ITZA: 2.99 mg/mL
Solvent H3, approximately 4 mg/mL, 40° C., 7 days
  ITZA: 2.68 mg/mL
Solvent H3, approximately 4 mg/mL, 40° C., 8 days
  ITZA: 2.68 mg/mL
Solvent H3, approximately 4 mg/mL, 40° C., 9 days
  ITZA: 2.23 mg/mL
Solvent H3, approximately 4 mg/mL, 40° C., 10 days
  ITZA: 2.28 mg/mL
Solvent H3, approximately 4 mg/mL, 40° C., 11 days
  ITZA: 2.21 mg/mL
Solvent H3, approximately 4 mg/mL, 40° C., 14 days
  ITZA: 2.16 mg/mL
Solvent H3, approximately 4 mg/mL, 40° C., 16 days
  ITZA: 2.10 mg/mL
Solvent H3, approximately 4 mg/mL, 40° C., 18 days
  ITZA: 2.09 mg/mL
Solvent H3, approximately 4 mg/mL, 40° C., 21 days
  ITZA: 1.74 mg/mL
Solvent H3, approximately 4 mg/mL, 40° C., 25 days
  ITZA: 1.43 mg/mL
Solvent H3, approximately 4 mg/mL, 40° C., 28 days
  ITZA: 1.15 mg/mL
Solvent H3, approximately 4 mg/mL, 40° C., 32 days
  ITZA: 0.93 mg/mL
Solvent H3, approximately 4 mg/mL, 40° C., time 0
  ITZA: 3.84 mg/mL
0 hrs
  ITZA (2.0 mg/mL): 2.04 mg/mL
2 hrs
  ITZA (2.0 mg/mL): 1.97 mg/mL
4 hrs
  ITZA (2.0 mg/mL): 1.97 mg/mL
6 hrs
  ITZA (2.0 mg/mL): 2.06 mg/mL
8 hrs
  ITZA (2.0 mg/mL): 2.07 mg/mL
14 hrs
  ITZA (2.0 mg/mL): 2.25 mg/mL
24 hrs
  ITZA (2.0 mg/mL): 1.92 mg/mL
Stock diluted with NS or dextrose in water to 1-3 mg/mL, more than 12 hours
  Recovered (%) after dilution: > 95%
